Data from the supplement of paper PMC10849652.
Some of the results follow. Residues, ends and D or L forms follow the SMILES beside them. *: point of attachment. Cbz = O=C(OCc1ccccc1)*

Chains of the proteins cited; added tags and fusions are not shown. Lines headed by an entry give the natural chain unless they say otherwise; changes in a name come on top.
UniProt O94842: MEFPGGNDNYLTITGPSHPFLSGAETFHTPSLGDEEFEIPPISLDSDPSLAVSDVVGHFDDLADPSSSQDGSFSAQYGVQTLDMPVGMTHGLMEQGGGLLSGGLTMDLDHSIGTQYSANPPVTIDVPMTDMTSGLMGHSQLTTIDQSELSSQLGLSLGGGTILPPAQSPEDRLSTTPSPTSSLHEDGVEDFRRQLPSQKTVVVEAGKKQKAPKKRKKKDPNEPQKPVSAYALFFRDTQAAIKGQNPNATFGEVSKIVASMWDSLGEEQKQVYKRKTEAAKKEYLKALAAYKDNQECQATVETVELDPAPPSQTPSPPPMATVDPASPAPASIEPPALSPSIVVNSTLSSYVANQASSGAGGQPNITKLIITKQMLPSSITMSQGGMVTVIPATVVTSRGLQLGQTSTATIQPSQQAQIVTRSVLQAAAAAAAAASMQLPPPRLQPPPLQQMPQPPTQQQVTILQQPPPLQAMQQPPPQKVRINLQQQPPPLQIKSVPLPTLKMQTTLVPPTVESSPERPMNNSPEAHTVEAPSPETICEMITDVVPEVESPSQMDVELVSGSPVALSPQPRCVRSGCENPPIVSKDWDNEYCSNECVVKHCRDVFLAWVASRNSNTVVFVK
UniProt Q8WVT3: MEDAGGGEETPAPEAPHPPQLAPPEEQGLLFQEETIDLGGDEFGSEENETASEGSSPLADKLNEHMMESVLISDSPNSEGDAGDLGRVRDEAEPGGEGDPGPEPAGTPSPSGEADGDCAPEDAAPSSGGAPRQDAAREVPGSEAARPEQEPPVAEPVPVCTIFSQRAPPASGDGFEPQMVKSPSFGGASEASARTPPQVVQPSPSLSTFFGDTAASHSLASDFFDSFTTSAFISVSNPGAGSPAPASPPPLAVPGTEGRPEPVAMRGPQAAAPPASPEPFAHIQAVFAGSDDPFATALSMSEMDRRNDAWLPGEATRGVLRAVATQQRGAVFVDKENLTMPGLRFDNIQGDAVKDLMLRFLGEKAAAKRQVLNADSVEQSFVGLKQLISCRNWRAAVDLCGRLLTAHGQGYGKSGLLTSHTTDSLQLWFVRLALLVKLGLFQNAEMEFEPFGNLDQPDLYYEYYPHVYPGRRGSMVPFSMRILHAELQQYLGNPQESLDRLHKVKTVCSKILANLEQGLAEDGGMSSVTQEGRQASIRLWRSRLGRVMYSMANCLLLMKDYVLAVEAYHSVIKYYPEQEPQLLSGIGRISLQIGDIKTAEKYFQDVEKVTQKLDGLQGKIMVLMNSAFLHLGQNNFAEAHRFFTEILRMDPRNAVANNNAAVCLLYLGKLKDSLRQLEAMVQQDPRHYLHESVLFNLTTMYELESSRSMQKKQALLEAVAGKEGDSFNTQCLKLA
UniProt Q9Y4A5, whole entry, looked up: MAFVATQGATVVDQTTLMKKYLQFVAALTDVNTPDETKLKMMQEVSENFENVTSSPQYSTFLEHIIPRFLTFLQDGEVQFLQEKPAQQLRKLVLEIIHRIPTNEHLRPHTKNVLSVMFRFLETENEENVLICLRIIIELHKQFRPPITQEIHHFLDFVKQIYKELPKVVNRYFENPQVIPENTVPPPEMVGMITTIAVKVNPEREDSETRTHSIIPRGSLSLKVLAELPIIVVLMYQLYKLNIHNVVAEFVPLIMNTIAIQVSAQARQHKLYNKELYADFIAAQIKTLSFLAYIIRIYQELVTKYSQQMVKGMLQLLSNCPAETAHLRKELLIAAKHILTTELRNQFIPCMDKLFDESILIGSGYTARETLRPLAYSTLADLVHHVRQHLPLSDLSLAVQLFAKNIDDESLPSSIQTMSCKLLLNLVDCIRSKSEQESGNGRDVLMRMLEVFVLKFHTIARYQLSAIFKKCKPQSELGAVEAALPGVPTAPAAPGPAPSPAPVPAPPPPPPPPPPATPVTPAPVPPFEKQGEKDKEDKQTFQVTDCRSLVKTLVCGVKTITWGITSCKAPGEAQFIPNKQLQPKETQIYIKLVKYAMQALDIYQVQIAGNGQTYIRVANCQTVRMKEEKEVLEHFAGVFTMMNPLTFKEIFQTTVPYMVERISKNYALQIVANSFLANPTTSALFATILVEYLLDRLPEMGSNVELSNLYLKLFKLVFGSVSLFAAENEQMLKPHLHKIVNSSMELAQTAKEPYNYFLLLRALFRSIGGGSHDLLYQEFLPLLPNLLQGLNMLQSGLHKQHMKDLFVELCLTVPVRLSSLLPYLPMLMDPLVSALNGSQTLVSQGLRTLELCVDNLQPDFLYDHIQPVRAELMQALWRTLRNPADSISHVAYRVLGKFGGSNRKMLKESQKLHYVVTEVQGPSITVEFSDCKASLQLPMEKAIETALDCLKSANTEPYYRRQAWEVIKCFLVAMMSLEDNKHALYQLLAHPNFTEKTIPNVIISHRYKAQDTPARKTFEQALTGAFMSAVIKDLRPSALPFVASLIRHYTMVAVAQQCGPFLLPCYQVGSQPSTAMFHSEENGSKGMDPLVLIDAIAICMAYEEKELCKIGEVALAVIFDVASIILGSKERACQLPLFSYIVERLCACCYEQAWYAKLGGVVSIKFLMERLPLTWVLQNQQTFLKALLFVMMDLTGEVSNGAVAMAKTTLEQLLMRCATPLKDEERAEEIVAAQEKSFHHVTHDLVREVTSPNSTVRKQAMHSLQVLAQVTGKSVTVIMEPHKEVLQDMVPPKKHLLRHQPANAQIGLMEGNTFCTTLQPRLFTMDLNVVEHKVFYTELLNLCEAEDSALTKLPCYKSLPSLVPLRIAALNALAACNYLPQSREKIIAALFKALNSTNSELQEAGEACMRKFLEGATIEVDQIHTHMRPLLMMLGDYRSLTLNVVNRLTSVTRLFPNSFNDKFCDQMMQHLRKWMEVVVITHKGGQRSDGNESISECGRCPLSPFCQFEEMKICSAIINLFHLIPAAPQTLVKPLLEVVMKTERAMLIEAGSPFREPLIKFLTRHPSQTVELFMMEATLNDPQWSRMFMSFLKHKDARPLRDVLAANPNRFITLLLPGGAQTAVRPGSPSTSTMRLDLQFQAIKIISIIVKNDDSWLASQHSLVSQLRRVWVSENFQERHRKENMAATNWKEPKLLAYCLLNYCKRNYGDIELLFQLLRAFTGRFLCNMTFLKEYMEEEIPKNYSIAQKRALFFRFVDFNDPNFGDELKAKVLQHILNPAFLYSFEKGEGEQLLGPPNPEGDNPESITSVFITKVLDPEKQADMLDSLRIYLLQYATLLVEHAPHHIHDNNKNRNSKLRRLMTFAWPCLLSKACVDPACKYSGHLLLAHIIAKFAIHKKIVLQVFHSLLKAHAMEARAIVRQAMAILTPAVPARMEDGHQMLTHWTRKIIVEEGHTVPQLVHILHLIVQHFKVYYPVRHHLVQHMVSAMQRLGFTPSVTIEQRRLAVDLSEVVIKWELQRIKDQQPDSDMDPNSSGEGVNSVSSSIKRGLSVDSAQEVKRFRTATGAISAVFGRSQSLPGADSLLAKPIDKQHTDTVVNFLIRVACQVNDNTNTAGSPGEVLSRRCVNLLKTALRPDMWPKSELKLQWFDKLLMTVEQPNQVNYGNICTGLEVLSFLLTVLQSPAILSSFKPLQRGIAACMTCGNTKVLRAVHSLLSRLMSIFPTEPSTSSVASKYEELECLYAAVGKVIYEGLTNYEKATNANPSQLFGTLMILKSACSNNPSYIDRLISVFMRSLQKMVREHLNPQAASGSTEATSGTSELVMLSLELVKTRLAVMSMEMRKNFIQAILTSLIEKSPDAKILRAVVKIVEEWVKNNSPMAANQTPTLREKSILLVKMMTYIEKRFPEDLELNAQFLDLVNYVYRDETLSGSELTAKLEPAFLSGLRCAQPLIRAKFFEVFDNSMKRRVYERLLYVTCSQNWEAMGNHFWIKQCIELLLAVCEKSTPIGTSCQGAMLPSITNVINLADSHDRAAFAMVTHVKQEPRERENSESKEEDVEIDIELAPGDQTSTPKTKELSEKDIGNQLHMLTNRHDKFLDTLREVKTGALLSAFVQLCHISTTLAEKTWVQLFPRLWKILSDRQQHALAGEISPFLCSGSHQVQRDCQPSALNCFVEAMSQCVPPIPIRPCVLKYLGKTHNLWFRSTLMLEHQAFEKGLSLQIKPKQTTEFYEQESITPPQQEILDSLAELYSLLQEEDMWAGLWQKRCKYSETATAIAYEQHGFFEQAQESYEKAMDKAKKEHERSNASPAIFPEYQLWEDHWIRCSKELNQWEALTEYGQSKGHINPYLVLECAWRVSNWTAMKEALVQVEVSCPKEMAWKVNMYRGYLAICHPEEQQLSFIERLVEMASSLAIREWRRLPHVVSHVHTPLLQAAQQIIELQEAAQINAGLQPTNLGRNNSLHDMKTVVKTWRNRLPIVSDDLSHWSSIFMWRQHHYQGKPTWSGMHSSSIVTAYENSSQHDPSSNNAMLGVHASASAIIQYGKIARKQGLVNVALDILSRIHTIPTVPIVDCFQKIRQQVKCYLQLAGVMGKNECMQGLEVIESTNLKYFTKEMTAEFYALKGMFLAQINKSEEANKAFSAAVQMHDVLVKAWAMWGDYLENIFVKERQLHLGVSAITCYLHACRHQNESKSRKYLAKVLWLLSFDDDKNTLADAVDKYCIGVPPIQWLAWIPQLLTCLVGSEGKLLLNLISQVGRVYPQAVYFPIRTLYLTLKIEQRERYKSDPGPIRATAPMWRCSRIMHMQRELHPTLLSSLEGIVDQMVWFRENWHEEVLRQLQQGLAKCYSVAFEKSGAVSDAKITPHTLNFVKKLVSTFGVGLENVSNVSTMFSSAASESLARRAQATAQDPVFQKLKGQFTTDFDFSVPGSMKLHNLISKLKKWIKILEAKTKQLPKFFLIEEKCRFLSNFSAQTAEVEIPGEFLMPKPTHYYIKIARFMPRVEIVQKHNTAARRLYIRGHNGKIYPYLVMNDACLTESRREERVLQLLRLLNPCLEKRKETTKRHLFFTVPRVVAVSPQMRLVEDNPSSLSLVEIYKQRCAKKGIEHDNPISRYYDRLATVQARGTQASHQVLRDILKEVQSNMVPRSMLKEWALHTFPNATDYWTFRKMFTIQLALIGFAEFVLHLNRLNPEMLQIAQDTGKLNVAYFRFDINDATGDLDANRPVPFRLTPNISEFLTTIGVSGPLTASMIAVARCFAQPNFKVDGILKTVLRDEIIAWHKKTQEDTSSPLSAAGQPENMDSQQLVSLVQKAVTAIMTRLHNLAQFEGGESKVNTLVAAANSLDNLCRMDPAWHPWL
UniProt Q9NS69: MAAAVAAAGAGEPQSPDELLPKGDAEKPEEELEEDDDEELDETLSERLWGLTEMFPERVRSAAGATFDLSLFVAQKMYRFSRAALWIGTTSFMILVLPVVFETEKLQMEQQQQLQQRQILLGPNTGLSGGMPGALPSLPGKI
UniProt Q13049: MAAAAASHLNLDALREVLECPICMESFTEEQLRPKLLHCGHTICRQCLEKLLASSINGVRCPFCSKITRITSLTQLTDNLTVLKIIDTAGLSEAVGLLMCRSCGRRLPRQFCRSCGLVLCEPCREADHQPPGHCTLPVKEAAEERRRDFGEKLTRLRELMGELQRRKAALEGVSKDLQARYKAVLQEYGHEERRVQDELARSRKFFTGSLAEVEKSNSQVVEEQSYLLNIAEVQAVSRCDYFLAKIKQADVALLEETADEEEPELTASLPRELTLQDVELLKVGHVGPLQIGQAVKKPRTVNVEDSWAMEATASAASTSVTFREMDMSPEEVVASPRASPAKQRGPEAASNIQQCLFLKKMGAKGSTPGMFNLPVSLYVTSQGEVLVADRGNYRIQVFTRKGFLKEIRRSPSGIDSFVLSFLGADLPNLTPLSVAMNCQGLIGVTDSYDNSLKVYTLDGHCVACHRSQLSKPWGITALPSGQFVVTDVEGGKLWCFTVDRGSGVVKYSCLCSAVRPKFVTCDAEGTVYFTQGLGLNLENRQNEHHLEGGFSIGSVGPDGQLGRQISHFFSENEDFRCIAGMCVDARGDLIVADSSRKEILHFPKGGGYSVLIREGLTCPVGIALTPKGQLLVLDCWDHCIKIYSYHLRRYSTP
UniProt P60174, whole entry, looked up: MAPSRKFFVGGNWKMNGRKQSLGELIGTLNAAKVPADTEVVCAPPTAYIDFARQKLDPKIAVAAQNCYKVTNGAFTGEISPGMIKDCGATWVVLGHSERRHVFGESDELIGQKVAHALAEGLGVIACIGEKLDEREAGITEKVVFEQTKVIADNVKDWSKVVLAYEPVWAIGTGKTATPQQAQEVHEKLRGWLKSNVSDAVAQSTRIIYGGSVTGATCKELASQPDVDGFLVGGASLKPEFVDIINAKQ
UniProt O14656: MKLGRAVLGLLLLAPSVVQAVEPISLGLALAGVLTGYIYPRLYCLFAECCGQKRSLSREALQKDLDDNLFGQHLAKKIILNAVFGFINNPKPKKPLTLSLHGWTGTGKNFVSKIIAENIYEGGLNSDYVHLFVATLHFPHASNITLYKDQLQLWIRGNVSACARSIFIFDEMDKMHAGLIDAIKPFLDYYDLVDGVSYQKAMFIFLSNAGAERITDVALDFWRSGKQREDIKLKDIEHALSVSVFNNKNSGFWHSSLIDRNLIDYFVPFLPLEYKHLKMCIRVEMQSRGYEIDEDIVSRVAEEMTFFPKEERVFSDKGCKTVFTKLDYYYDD

Key:
Experiment in all cases: log2 fold change, soluble protein after heating vs DMSO (PISA); higher = thermal stabilisation; K562 cells, 10 uM, 30 min; active = over 0.2 and 3.5 SD of the protein, either way, in both replicates (recomputed)
erlotinib = compound: C#Cc1cccc(Nc2ncnc3cc(OCCOC)c(OCCOC)cc23)c1 [erlotinib]
Summary of the method: (§1)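 Aliquots of K562 cells (2×10^6 cells/mL) treated with 10 μM compound for 30 min were heated for 3 min over 48°C-58°C. After pooling and extraction in PBS with 0.5% NP-40 at 4°C, soluble protein from a 21,000xg, 90 min spin was quantified by TMTpro 16plex LC-MS/MS with channel sums equalised. Thermal stability is expressed against control samples, from duplicates, as a log2 fold change.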

[1] = compound: C/C(=N\NC(=O)C1=CC(=CC=C1)S(=O)(=O)N2CCOCC2)/C3=C(C=CC(=C3)Cl)O
Summary of the method: as §1

[2] = compound: C1=CC(=C(C=C1Cl)C2=NC3=NC=CN=C3C(=N2)NC4=CC=NC=C4)F
Summary of the method: as §1

[3] = compound: C1=CC(=CC=C1C2=NC3=C(N2)C=C(C=C3)C(=O)N)OC4=CC=C(C=C4)Cl
Summary of the method: as §1

[4] = compound: C1=CC2=C(C=CC(=C2)/C=C\3/C(=O)NC(=NCC4=CC=CS4)S3)N=C1
Summary of the method: as §1

[5] = compound: C1=CC2=NC=CN=C2C=C1/C=C/3\C(=O)NC(=O)S3
Summary of the method: as §1

[6] = compound: C1=CC=C(C=C1)C2=NC(=C(N2)C3=CC=NC=C3)C4=CC(=C(C=C4)Cl)O
Summary of the method: as §1

[7] = compound: C1=CC=C2C(=C1)C3=NNC4=CC=CC(=C43)C2=O
Summary of the method: as §1

[8] = compound: C1CCN(C1)C(=O)NC2=CC=CC(=C2)NC3=NC=C(C(=N3)NCCC4=CN=CN4)Br
Summary of the method: as §1

[9] = compound: C1CN(CCC1(CC2=CC=C(C=C2)Cl)N)C3=NC=NC4=C3C=CN4
Summary of the method: as §1

IRAK-1-4 Inhibitor I = compound: C1COCCN1CCN2C3=CC=CC=C3N=C2NC(=O)C4=CC(=CC=C4)[N+](=O)[O-] [IRAK-1-4 Inhibitor I]
Summary of the method: as §1

ibrutinib = compound: C=CC(=O)N1CCC[C@@H](n2nc(-c3ccc(Oc4ccccc4)cc3)c3c(N)ncnc32)C1 [ibrutinib]
Summary of the method: as §1

[10] = compound: CC(=O)c1cnc2ccc(-c3cc(Cl)c(O)c(Cl)c3)nc2c1N[C@H]1CC[C@H](CN(C)C)CC1
Summary of the method: as §1

ralimetinib = compound: CC(C)(C)Cn1c(N)nc2ccc(-c3[nH]c(C(C)(C)C)nc3-c3ccc(F)cc3)nc21 [ralimetinib]
Summary of the method: as §1

[11] = compound: CC(C)(O)CC(=O)NCCn1ccc2ncnc(Nc3ccc(Oc4cccc(C(F)(F)F)c4)c(Cl)c3)c21
Summary of the method: as §1

[12] = compound: CC(C)C1=C2N=C(C=C(N2N=C1)NCC3=CC=CC=C3)NCCCCCCN
Summary of the method: as §1

[13] = compound: CC(C)C[C@@H](C=O)NC(=O)[C@H](CC(C)C)NC(=O)[C@H](CC(C)C)NC(=O)OCc1ccccc1
Summary of the method: as §1

pinometostat = compound: CC(C)N(C[C@H]1O[C@@H](n2cnc3c(N)ncnc32)[C@H](O)[C@@H]1O)[C@H]1C[C@@H](CCc2nc3cc(C(C)(C)C)ccc3[nH]2)C1 [pinometostat]
Summary of the method: as §1

[14] = compound: CC1=C(C(CC(=O)N1)C2=CC=C(C=C2)C(F)(F)F)C(=O)NC3=C(C=C4C(=C3)C=NN4)F
Summary of the method: as §1

[15] = compound: CC1=C(C2=C(C=C1)C(=O)C3=CC=CC=C3N2CCCN)C
Summary of the method: as §1

Measured: log2 fold change

TOX4 (UniProt O94842)
inactive: erlotinib -0.033 | [1] -0.168 | [2] -0.243 | [3] 0.067 | [4] -0.091 | [5] 0.087 | [6] -0.081 | [7] -0.064 | [8] 0.029 | [9] -0.107 | IRAK-1-4 Inhibitor I 0.04 | ibrutinib 0.059 | [10] 0.146 | ralimetinib 0.197 | [11] 0.087 | [12] 0.031 | [13] 0.044 | pinometostat 0.274 | [14] -0.01 | [15] 0.157

TRMT11 (UniProt Q7Z4G4)
inactive: erlotinib -0.028 | [1] 0.07 | [2] 0.024 | [3] 0.051 | [4] 0.013 | [5] 0.025 | [6] 0.019 | [7] 0.019 | [8] -0.033 | [9] 0.01 | IRAK-1-4 Inhibitor I 0.011 | ibrutinib 0.056 | [10] -0.048 | ralimetinib -0.032 | [11] -0.042 | [12] 0.041 | [13] 0.013 | pinometostat -0.084 | [14] -0.041 | [15] 0.016

TRAPPC12 (UniProt Q8WVT3)
inactive: erlotinib 0.015 | [1] 0.045 | [2] 0.004 | [3] 0.003 | [4] 0.004 | [5] 0.044 | [6] 0.054 | [7] -0.01 | [8] -0.057 | [9] -0.053 | IRAK-1-4 Inhibitor I -0.036 | ibrutinib -0.024 | [10] -0.06 | ralimetinib 0.019 | [11] -0.146 | [12] -0.068 | [13] 0.057 | pinometostat 0.073 | [14] 0.027 | [15] -0.046

TRRAP (UniProt Q9Y4A5)
inactive: erlotinib -0.017 | [1] 0.031 | [2] 0.012 | [3] 0.031 | [4] -0.009 | [5] 0.027 | [6] -0.002 | [7] -0.036 | [8] -0.017 | [9] 0.049 | IRAK-1-4 Inhibitor I 0.01 | ibrutinib -0.013 | [10] 0.017 | ralimetinib -0.015 | [11] -0.011 | [12] 0.036 | [13] 0.012 | pinometostat 0.009 | [14] 0.014 | [15] 0.034

TOMM40L (UniProt Q969M1)
inactive: erlotinib 0.072 | [1] 0.044 | [2] 0.001 | [3] 0.022 | [4] -0.045 | [5] 0.068 | [6] 0.004 | [7] 0.058 | [8] 0.019 | [9] -0.01 | IRAK-1-4 Inhibitor I 0.042 | ibrutinib 0.035 | [10] -0.014 | ralimetinib -0.001 | [11] -0.137 | [12] 0.045 | [13] -0.025 | pinometostat -0.025 | [14] 0.026 | [15] 0.016

TOMM22 (UniProt Q9NS69)
inactive: erlotinib 0.031 | [1] 0.118 | [2] 0.133 | [3] -0.027 | [4] 0.067 | [5] 0.147 | [6] 0.086 | [7] 0.036 | [8] -0.003 | [9] -0.051 | IRAK-1-4 Inhibitor I 0.015 | ibrutinib -0.011 | [10] -0.06 | ralimetinib -0.097 | [11] -0.058 | [12] -0.021 | [13] -0.053 | pinometostat -0.11 | [14] 0.028 | [15] 0.229

2 records drawn at random from those above, as already listed:
TRRAP (UniProt Q9Y4A5)
inactive: erlotinib -0.017 | [1] 0.031 | [2] 0.012 | [3] 0.031 | [4] -0.009 | [5] 0.027 | [6] -0.002 | [7] -0.036 | [8] -0.017 | [9] 0.049 | IRAK-1-4 Inhibitor I 0.01 | ibrutinib -0.013 | [10] 0.017 | ralimetinib -0.015 | [11] -0.011 | [12] 0.036 | [13] 0.012 | pinometostat 0.009 | [14] 0.014 | [15] 0.034

TOMM22 (UniProt Q9NS69)
inactive: erlotinib 0.031 | [1] 0.118 | [2] 0.133 | [3] -0.027 | [4] 0.067 | [5] 0.147 | [6] 0.086 | [7] 0.036 | [8] -0.003 | [9] -0.051 | IRAK-1-4 Inhibitor I 0.015 | ibrutinib -0.011 | [10] -0.06 | ralimetinib -0.097 | [11] -0.058 | [12] -0.021 | [13] -0.053 | pinometostat -0.11 | [14] 0.028 | [15] 0.229

Additional entries:

TPM3 isoform 2 (UniProt P06753)
inactive: erlotinib -0.035 | [1] -0.03 | [2] 0.048 | [3] -0.013 | [4] -0.041 | [5] 0.02 | [6] -0.009 | [7] 0.049 | [8] 0.078 | [9] 0.05 | IRAK-1-4 Inhibitor I 0.11 | ibrutinib -0.007 | [10] -0.044 | ralimetinib 0.068 | [11] 0.179 | [12] 0.044 | [13] 0.003 | pinometostat -0.027 | [14] 0.065 | [15] -0.015

TRIM11 (UniProt Q96F44)
inactive: erlotinib 0.023 | [1] 0.045 | [2] 0.055 | [3] -0.058 | [4] 0.052 | [5] 0.073 | [6] 0.01 | [7] -0.043 | [8] 0.003 | [9] -0.029 | IRAK-1-4 Inhibitor I -0.037 | ibrutinib -0.029 | [10] -0.074 | ralimetinib 0.016 | [11] -0.021 | [12] -0.079 | [13] -0.002 | pinometostat -0.042 | [14] 0.078 | [15] -0.061

TRIM32 (UniProt Q13049)
inactive: erlotinib 0.007 | [1] -0.096 | [2] 0.068 | [3] 0.146 | [4] 0.142 | [5] 0.062 | [6] -0.032 | [7] -0.137 | [8] 0.075 | [9] 0.149 | IRAK-1-4 Inhibitor I 0.036 | ibrutinib 0.009 | [10] 0.043 | ralimetinib 0.024 | [11] 0.113 | [12] 0.003 | [13] 0.027 | pinometostat -0.006 | [14] 0.001 | [15] -0.085

TRNT1 (UniProt Q96Q11)
inactive: erlotinib 0.107 | [1] 0.015 | [2] 0.063 | [3] -0.02 | [4] 0.052 | [5] 0.005 | [6] 0.05 | [7] 0.043 | [8] 0.003 | [9] -0.003 | IRAK-1-4 Inhibitor I 0.035 | ibrutinib -0.014 | [10] -0.042 | ralimetinib 0.014 | [11] -0.162 | [12] -0.063 | [13] -0.003 | pinometostat 0.02 | [14] -0.014 | [15] 0.114

TOR1AIP2 (UniProt Q8NFQ8)
inactive: erlotinib -0.056 | [1] -0.021 | [2] -0.04 | [3] -0.015 | [4] 0.075 | [5] -0.002 | [6] -0.014 | [7] -0.031 | [8] 0.01 | [9] -0.011 | IRAK-1-4 Inhibitor I 0.006 | ibrutinib -0.004 | [10] -0.001 | ralimetinib -0.017 | [11] 0.01 | [12] 0.005 | [13] 0.004 | pinometostat 0.026 | [14] 0.084 | [15] -0.011

TRMT112 (UniProt Q9UI30)
inactive: erlotinib 0.053 | [1] 0.137 | [2] 0.036 | [3] 0.034 | [4] 0.047 | [5] 0.026 | [6] -0.091 | [7] 0.057 | [8] 0.027 | [9] -0.042 | IRAK-1-4 Inhibitor I 0.011 | ibrutinib -0.003 | [10] -0.11 | ralimetinib -0.056 | [11] -0.137 | [12] -0.007 | [13] 0.129 | pinometostat -0.023 | [14] 0.004 | [15] 0.167

TP53BP2 isoform 3 (UniProt Q13625)
inactive: erlotinib 0.017 | [1] 0.068 | [2] -0.017 | [3] -0.04 | [4] 0.012 | [5] -0.276 | [6] 0.024 | [7] 0.045 | [8] -0.007 | [9] -0.156 | IRAK-1-4 Inhibitor I -0.029 | ibrutinib 0.024 | [10] -0.213 | ralimetinib 0.157 | [11] -0.021 | [12] -0.065 | [13] 0.069 | pinometostat 0.145 | [14] -0.285 | [15] 0.013

TOR3A (UniProt Q9H497)
inactive: erlotinib 0.022 | [1] -0.021 | [2] -0.016 | [3] 0.005 | [4] -0.048 | [5] 0.026 | [6] -0.046 | [7] -0.041 | [8] 0.018 | [9] 0.017 | IRAK-1-4 Inhibitor I 0.014 | ibrutinib 0.06 | [10] -0.02 | ralimetinib -0.058 | [11] -0.074 | [12] -0.063 | [13] 0.001 | pinometostat 0.007 | [14] 0.059 | [15] -0.004

TPI1 (UniProt P60174)
inactive: erlotinib -0.032 | [1] -0.018 | [2] 0.058 | [3] 0.032 | [4] 0.027 | [5] 0.002 | [6] -0.02 | [7] 0.004 | [8] 0.022 | [9] 0.039 | IRAK-1-4 Inhibitor I 0.046 | ibrutinib 0.025 | [10] 0.005 | ralimetinib -0.068 | [11] 0.033 | [12] 0.049 | [13] 0.039 | pinometostat -0.08 | [14] 0.039 | [15] 0.004

TOR1A (UniProt O14656)
inactive: erlotinib 0.018 | [1] 0 | [2] 0.012 | [3] 0.005 | [4] 0.053 | [5] 0.029 | [6] -0.019 | [7] 0.013 | [8] 0.006 | [9] 0.02 | IRAK-1-4 Inhibitor I 0.027 | ibrutinib 0.022 | [10] -0.02 | ralimetinib -0.005 | [11] -0.019 | [12] 0.011 | [13] -0.017 | pinometostat 0.001 | [14] 0.011 | [15] -0.003
